Data published in the supplement of paper PMC12067093, “Discovery and optimisation of a covalent ligand for TRIM25 and its application to targeted protein ubiquitination” (Chemical Science, 2025).
Some of the results follow.

By UniProt entry, the sequences of proteins in these tests, tags left out. Where a name states a change or a piece, a line headed by the entry shows the natural chain unless it says otherwise.
UniProt Q9BTW9: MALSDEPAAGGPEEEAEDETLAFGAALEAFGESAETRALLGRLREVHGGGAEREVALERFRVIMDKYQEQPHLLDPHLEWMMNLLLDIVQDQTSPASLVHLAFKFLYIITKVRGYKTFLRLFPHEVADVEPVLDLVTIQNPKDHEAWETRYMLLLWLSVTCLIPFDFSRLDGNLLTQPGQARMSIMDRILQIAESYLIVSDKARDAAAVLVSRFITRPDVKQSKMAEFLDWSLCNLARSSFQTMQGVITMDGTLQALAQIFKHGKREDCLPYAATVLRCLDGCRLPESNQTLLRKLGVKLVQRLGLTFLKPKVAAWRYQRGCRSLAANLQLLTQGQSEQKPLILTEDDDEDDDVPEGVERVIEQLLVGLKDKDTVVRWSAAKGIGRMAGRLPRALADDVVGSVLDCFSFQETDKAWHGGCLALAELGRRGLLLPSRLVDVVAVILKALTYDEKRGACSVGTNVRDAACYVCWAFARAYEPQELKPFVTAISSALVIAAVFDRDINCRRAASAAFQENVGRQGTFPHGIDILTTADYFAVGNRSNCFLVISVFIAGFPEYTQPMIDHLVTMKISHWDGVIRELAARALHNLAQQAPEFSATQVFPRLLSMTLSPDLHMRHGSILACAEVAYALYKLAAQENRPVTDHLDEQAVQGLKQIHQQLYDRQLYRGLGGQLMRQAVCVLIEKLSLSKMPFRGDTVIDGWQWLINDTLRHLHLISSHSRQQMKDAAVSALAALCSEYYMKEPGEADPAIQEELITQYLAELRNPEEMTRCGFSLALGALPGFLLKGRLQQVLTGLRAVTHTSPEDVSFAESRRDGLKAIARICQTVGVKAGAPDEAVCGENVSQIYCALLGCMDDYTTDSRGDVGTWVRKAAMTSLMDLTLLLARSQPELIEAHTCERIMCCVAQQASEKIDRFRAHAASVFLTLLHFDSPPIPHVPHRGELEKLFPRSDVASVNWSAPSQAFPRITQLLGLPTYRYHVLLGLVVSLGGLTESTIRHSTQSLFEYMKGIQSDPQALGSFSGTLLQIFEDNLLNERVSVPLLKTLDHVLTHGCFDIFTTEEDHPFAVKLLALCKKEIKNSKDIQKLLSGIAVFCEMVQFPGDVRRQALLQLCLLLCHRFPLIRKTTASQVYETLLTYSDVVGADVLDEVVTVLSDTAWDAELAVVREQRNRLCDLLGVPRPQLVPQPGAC
UniProt Q9NVG8: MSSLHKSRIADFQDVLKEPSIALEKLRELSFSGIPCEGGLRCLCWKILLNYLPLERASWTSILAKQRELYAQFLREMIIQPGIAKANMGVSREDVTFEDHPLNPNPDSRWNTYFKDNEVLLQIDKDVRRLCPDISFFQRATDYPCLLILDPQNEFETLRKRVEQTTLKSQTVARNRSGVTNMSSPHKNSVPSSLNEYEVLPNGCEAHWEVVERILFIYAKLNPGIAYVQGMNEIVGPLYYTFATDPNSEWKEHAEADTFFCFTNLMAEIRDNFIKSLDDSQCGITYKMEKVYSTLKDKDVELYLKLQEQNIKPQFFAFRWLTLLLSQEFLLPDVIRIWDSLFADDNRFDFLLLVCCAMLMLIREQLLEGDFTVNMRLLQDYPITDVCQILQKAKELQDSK
UniProt Q66K14, whole entry, looked up: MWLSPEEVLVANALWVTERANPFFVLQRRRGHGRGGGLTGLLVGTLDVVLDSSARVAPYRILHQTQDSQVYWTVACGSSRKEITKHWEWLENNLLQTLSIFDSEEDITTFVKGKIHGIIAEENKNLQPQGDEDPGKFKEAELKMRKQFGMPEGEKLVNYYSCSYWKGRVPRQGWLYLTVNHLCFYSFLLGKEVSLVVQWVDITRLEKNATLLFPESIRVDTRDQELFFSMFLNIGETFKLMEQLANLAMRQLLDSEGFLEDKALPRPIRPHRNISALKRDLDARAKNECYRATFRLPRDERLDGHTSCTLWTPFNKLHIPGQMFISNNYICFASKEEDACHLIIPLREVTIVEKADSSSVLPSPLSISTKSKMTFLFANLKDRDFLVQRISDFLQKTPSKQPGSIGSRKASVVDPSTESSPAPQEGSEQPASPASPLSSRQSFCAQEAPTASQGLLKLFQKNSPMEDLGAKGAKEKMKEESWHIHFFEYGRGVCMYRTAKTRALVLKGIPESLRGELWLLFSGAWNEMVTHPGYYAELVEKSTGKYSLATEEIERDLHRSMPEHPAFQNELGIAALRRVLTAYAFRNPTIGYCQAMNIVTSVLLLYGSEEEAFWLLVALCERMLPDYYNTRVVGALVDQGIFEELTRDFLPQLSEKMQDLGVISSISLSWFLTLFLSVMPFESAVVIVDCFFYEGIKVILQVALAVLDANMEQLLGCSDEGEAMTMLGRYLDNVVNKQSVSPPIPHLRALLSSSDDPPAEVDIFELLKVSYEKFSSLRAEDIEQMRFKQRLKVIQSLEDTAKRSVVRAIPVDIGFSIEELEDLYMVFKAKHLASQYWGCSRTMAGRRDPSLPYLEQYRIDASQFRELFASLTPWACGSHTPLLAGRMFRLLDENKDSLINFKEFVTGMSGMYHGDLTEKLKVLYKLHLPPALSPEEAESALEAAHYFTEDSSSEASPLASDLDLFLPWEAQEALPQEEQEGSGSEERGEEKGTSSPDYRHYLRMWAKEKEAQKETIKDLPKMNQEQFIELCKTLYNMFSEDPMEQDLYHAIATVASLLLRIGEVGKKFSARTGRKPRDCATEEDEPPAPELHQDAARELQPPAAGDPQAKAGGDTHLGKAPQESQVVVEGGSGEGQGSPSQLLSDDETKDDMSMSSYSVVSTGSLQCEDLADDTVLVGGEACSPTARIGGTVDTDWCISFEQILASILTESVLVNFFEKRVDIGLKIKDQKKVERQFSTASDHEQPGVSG
UniProt Q9BX59, whole entry, looked up: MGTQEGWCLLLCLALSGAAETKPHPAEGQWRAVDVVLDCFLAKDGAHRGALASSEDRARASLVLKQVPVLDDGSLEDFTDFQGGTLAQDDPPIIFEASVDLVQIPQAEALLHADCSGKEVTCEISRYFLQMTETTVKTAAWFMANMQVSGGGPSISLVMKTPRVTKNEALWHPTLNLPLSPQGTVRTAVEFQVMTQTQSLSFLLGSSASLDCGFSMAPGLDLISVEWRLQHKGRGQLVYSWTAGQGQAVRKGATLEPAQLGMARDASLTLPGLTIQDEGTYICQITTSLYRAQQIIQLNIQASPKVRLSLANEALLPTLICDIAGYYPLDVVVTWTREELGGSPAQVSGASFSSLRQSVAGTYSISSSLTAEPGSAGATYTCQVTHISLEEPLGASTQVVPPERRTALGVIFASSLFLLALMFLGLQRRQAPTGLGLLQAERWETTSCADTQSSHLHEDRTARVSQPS
UniProt Q13488, whole entry, looked up: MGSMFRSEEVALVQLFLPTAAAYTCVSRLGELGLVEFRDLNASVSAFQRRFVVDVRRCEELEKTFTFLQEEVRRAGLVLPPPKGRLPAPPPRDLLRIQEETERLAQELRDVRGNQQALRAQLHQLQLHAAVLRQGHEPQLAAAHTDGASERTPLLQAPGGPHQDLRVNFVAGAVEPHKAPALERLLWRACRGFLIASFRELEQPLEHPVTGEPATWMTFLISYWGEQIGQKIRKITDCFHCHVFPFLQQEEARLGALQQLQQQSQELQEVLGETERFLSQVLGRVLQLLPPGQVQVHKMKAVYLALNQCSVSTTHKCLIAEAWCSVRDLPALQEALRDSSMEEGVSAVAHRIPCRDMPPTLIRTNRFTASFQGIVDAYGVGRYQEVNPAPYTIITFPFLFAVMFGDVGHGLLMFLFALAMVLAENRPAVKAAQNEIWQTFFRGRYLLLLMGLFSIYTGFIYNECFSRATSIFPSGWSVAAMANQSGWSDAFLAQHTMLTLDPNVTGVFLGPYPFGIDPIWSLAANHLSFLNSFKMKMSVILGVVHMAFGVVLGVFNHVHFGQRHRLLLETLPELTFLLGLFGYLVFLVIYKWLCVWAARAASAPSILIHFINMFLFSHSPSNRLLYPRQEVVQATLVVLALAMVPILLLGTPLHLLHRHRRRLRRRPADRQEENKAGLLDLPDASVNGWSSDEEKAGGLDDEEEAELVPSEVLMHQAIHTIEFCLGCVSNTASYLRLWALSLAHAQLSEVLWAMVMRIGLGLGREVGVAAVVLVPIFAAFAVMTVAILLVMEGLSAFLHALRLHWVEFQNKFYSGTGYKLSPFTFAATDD
UniProt Q03519, whole entry, looked up: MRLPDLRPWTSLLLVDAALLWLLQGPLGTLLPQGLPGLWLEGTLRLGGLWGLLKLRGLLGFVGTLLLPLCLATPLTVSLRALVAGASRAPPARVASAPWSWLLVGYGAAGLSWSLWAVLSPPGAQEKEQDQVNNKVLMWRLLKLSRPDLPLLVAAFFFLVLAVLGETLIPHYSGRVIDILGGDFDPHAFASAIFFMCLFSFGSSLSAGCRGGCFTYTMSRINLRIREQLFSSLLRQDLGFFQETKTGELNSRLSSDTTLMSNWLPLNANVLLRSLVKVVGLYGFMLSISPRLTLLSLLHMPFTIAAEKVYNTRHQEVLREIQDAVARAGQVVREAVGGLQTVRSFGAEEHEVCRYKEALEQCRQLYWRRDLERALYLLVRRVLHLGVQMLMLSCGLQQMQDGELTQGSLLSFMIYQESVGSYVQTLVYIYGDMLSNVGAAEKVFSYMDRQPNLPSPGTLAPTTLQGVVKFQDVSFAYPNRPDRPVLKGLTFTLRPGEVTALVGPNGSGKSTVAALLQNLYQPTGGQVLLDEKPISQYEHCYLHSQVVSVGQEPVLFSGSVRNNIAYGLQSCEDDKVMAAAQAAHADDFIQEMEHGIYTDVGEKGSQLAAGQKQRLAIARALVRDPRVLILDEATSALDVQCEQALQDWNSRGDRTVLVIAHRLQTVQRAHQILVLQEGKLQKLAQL
UniProt O43760: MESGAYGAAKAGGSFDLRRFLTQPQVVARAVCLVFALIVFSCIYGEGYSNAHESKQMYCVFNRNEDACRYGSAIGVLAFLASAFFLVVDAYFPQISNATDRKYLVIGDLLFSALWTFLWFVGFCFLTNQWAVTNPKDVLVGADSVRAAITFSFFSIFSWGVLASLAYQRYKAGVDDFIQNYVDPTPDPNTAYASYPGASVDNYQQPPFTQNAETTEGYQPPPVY
UniProt O15533, whole entry, looked up: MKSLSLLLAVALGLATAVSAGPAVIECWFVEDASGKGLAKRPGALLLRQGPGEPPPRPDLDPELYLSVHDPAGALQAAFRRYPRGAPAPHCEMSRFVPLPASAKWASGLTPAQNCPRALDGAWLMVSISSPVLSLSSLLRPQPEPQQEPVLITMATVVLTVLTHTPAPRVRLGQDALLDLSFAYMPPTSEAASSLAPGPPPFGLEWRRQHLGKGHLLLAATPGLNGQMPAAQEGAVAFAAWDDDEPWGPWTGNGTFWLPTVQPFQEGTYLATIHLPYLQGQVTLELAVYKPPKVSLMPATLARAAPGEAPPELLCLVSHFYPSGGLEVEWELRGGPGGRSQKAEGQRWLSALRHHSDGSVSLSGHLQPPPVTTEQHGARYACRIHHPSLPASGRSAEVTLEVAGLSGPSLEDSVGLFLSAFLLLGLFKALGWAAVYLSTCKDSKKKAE
UniProt Q7L7X3: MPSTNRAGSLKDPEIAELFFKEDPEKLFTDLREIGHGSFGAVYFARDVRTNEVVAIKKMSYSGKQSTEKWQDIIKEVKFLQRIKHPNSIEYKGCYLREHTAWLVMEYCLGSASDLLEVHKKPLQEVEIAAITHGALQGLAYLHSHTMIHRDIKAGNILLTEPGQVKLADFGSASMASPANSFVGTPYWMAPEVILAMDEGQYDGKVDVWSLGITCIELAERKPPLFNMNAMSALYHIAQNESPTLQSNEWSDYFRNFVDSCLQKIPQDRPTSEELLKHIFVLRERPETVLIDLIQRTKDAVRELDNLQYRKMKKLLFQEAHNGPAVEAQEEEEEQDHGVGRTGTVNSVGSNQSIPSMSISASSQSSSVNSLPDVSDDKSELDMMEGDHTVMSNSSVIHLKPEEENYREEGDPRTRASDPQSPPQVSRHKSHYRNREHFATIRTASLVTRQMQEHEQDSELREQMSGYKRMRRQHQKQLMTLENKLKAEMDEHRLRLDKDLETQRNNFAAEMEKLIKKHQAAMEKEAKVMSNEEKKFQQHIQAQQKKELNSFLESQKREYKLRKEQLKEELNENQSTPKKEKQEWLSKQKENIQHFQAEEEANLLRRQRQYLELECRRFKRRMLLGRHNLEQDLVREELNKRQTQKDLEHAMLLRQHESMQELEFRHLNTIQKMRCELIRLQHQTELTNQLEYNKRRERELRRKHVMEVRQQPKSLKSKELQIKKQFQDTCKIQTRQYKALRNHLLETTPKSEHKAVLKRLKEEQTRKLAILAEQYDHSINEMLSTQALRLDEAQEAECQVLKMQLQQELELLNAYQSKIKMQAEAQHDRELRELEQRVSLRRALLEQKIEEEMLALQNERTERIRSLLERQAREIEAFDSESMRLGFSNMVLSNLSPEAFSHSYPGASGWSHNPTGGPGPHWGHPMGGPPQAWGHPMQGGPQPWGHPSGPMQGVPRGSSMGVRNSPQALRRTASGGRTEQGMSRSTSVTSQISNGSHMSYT

Compound: Cc1cc(ccc1-c1ccccc1)C(=O)N1CCCN(CC1)C(=O)CCl [compound 10]
Assay: probe-labelled cysteine peptide fold change vs DMSO (competition) (log2 fold change); higher = less target engagement (more negative = stronger competition)
Conditions: THP-1, incubation time: 4 h
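Also: competitive profiling in live THP-1 cells: cysteine peptides tagged with an iodoacetamide desthiobiotin (IA-DTB) probe, intensity after compound treatment relative to DMSO-treated cells.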

Target: TCEA1_P23193_271_NCTYTQVQTR (UniProt P23193)
- probe-labelled cysteine peptide fold change (10 µM): 0.0737
- probe-labelled cysteine peptide fold change (50 µM): 0.0314

Target: TACO1_Q9BSH4_234_FICDASSLHQVR (UniProt Q9BSH4)
- probe-labelled cysteine peptide fold change (10 µM): 0.293
- probe-labelled cysteine peptide fold change (50 µM): -0.0566

Target: TBC1D23_Q9NUY8_31_DLEEALEAGGCDLETLR (UniProt Q9NUY8)
- probe-labelled cysteine peptide fold change (10 µM): 0.0492
- probe-labelled cysteine peptide fold change (50 µM): 0.305

Target: TCF25_Q9BQ70_540_EPATMSWLEENVHEVLQAVDAGDPAVEACENRR (UniProt Q9BQ70)
- probe-labelled cysteine peptide fold change (10 µM): -0.186
- probe-labelled cysteine peptide fold change (50 µM): 0.168

Target: TBCD_Q9BTW9_681_QAVCVLIEK (UniProt Q9BTW9)
- probe-labelled cysteine peptide fold change (10 µM): 0.0814
- probe-labelled cysteine peptide fold change (50 µM): 0.262

Target: TANC1_Q9C0D5_1611_LQCGENGPAHPLPSK (UniProt Q9C0D5)
- probe-labelled cysteine peptide fold change (10 µM): -0.114
- probe-labelled cysteine peptide fold change (50 µM): -0.165

Target: TBC1D13_Q9NVG8_261_EHAEADTFFCFTNLMAEIRDNFIK (UniProt Q9NVG8)
- probe-labelled cysteine peptide fold change (10 µM): -0.104
- probe-labelled cysteine peptide fold change (50 µM): -0.178

Target: TBRG4_Q969Z0_370_AQDITLPHLCSVLLAFAR (UniProt Q969Z0)
- probe-labelled cysteine peptide fold change (10 µM): -0.0263
- probe-labelled cysteine peptide fold change (50 µM): 0.177

Target: TBC1D9B_Q66K14_839_HLASQYWGCSR (UniProt Q66K14)
- probe-labelled cysteine peptide fold change (10 µM): 0.00106
- probe-labelled cysteine peptide fold change (50 µM): -0.626

Target: TANK_Q92844_218_GLCRDEEDTSFESLSK (UniProt Q92844)
- probe-labelled cysteine peptide fold change (10 µM): -0.39
- probe-labelled cysteine peptide fold change (50 µM): -0.236

Target: TBC1D15_Q8TC07_184_YVVLCESPQDKR (UniProt Q8TC07)
- probe-labelled cysteine peptide fold change (10 µM): 0.0621
- probe-labelled cysteine peptide fold change (50 µM): -0.0543

Target: TAF6L_Q9Y6J9_81_WSSVEAVCGYGSQEALPMRPAR (UniProt Q9Y6J9)
- probe-labelled cysteine peptide fold change (10 µM): -0.0172
- probe-labelled cysteine peptide fold change (50 µM): -0.0202

Target: TAPBPL_Q9BX59_39_AVDVVLDCFLAK (UniProt Q9BX59)
- probe-labelled cysteine peptide fold change (10 µM): 0.062
- probe-labelled cysteine peptide fold change (50 µM): -0.104

Target: TCIRG1_Q13488_241_ITDCFHCHVFPFLQQEEAR (UniProt Q13488)
- probe-labelled cysteine peptide fold change (10 µM): 0.0627
- probe-labelled cysteine peptide fold change (50 µM): 0.0932

Target: TBC1D13_Q9NVG8_145_ATDYPCLLILDPQNEFETLRK (UniProt Q9NVG8)
- probe-labelled cysteine peptide fold change (10 µM): 0.00255
- probe-labelled cysteine peptide fold change (50 µM): -0.376

Target: TACC3_Q9Y6A5_662_CEELHGK (UniProt Q9Y6A5)
- probe-labelled cysteine peptide fold change (10 µM): 0.104
- probe-labelled cysteine peptide fold change (50 µM): -0.0309

Target: TBCD_Q9BTW9_406_ALADDVVGSVLDCFSFQETDK (UniProt Q9BTW9)
- probe-labelled cysteine peptide fold change (10 µM): 0.121
- probe-labelled cysteine peptide fold change (50 µM): 0.378

Target: TBCD_Q9BTW9_1075_LLALCK (UniProt Q9BTW9)
- probe-labelled cysteine peptide fold change (10 µM): 0.244
- probe-labelled cysteine peptide fold change (50 µM): 0.279

Target: TAP2_Q03519_571_NNIAYGLQSCEDDK (UniProt Q03519)
- probe-labelled cysteine peptide fold change (10 µM): 0.0716
- probe-labelled cysteine peptide fold change (50 µM): 0.287

Target: TCF20_Q9UGU0_498_KADSCTNSEGSSQPEEQLK (UniProt Q9UGU0)
- probe-labelled cysteine peptide fold change (10 µM): -0.092
- probe-labelled cysteine peptide fold change (50 µM): -0.433

Target: TARS2_Q9BW92_322_EQELFFFHELSPGSCFFLPR (UniProt Q9BW92)
- probe-labelled cysteine peptide fold change (10 µM): 0.235
- probe-labelled cysteine peptide fold change (50 µM): 0.288

Target: TCEA1_P23193_294_SADEPMTTFVVCNECGNR (UniProt P23193)
- probe-labelled cysteine peptide fold change (10 µM): 0.0781
- probe-labelled cysteine peptide fold change (50 µM): 0.149

Target: TCIRG1_Q13488_25_SEEVALVQLFLPTAAAYTCVSR (UniProt Q13488)
- probe-labelled cysteine peptide fold change (10 µM): 0.2
- probe-labelled cysteine peptide fold change (50 µM): -0.307

Target: TBCD_Q9BTW9_269_REDCLPYAATVLR (UniProt Q9BTW9)
- probe-labelled cysteine peptide fold change (10 µM): -0.112
- probe-labelled cysteine peptide fold change (50 µM): 0.101

Target: SYNGR2_O43760_59_QMYCVFNR (UniProt O43760)
- probe-labelled cysteine peptide fold change (10 µM): -0.0823
- probe-labelled cysteine peptide fold change (50 µM): -0.197

Target: TARSL2_A2RTX5_74_LCLAEER (UniProt A2RTX5)
- probe-labelled cysteine peptide fold change (10 µM): 0.00859
- probe-labelled cysteine peptide fold change (50 µM): -0.0923

Target: TBC1D13_Q9NVG8_131_RLCPDISFFQR (UniProt Q9NVG8)
- probe-labelled cysteine peptide fold change (10 µM): -0.0543
- probe-labelled cysteine peptide fold change (50 µM): 0.0628

Target: TAPBP_O15533_115_WASGLTPAQNCPR (UniProt O15533)
- probe-labelled cysteine peptide fold change (10 µM): 0.00833
- probe-labelled cysteine peptide fold change (50 µM): -0.016

Target: TAOK1_Q7L7X3_798_LDEAQEAECQVLK (UniProt Q7L7X3)
- probe-labelled cysteine peptide fold change (10 µM): 0.0654
- probe-labelled cysteine peptide fold change (50 µM): 0.0138

Target: TAP2_Q03519_353_SFGAEEHEVCR (UniProt Q03519)
- probe-labelled cysteine peptide fold change (10 µM): -0.184
- probe-labelled cysteine peptide fold change (50 µM): -0.261
